# In PubChem BioAssay AID1487 (National Center for Advancing Translational Sciences (NCATS), 2009):
# Some of the results follow. The main result of the screen is listed elsewhere. These columns were measured beside it and carry no call. Most of these compounds were active or inconclusive in the main read-out, so they are no random draw. Words in brackets tell the shape of the fitted curve; partial curves, single points and poor fits give uncertain potencies.
# Experiment: qHTS Assay for Modulators of Lamin A Splicing
# Details: HeLa LMNA splicing GFP/RFP minigene ratio, 48 h
# In short: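 Read-out is the ratio of GFP to DsRed2 object intensity, acquired by 488 nm laser-scanning cytometry on HeLa lamin A-EGFP minigene reporter cells. Compound incubation 48 hrs at 37 °C in Opti-MEM with 2% FBS; DMSO 0.5% final.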
# [1] = measured here: GFP splicing reporter channel
# [2] = measured here: RFP viability control channel
SMILES,AC50 [1],AC50 [2]
CC1Cc2ccccc2N1Cc1nc2cc(C(F)(F)F)ccc2c(=O)[nH]1 (stereo not drawn),"12.6 µM [falling, partial curve]","25.1 µM [falling, partial curve]"
CC1CCCCN1C(=O)c1ccc(C(=O)N2CCCCC2C)cc1 (stereo not drawn),"20 µM [rising, single point]",
O=C(CN1C(=O)C2CC=CCC2C1=O)Nc1ccc(-c2nnc3n2CCCCC3)cc1 (stereo not drawn),,"0.00224 µM [falling, full curve, poor fit]"
Cc1cc(Nc2ccc(Cl)cc2)nc(NCc2ccccc2)n1,"15.8 µM [rising, partial curve]","17.8 µM [rising, partial curve]"
CS(=O)(=O)N1CCN(c2ccc([N+](=O)[O-])cc2F)CC1,"22.4 µM [falling, partial curve, poor fit]","31.6 µM [falling, partial curve, poor fit]"
COc1ccc(/C=C/S(=O)(=O)NCc2ccccc2)cc1OC,,"4.47 µM [falling, single point]"
CCCN(CCC)S(=O)(=O)c1ccc(C(=O)Nc2sc3c(c2C(=O)OC)CCN(CC)C3)cc1,"20 µM [falling, partial curve, poor fit]",
CC12CCC(C(=O)N3CCCc4ccccc43)(CC1=O)C2(C)C (stereo not drawn),"35.5 µM [rising, single point]","22.4 µM [rising, single point]"
COc1ccccc1N(CC(=O)Nc1ccc2c(c1)OCO2)S(=O)(=O)c1ccccc1,"20 µM [rising, partial curve, poor fit]","20 µM [rising, partial curve, poor fit]"
CCCCn1c(N)c(S(=O)(=O)c2ccc(C)cc2)c2nc3ccccc3nc21,"31.6 µM [rising, single point]","35.5 µM [rising, single point]"
O=C(CN1CC[n+]2c(-c3cccs3)csc21)c1ccc(Br)cc1,,"35.5 µM [rising, single point]"
COc1cc(CN2CCCC(C(=O)c3ccc4c5c(cccc35)CC4)C2)cc(OC)c1O (stereo not drawn),"1.12 µM [falling, partial curve]",
O=C(NCCc1ccc(Cl)cc1)C(=O)NCC(c1ccco1)S(=O)(=O)c1ccc(Cl)cc1 (stereo not drawn),,"10 µM [falling, partial curve]"
CC(C)C(=O)N1CCN(c2nc(-c3ccc(Cl)cc3)cs2)CC1,"0.355 µM [rising, full curve, poor fit]",
CCOc1ccc(Br)cc1S(=O)(=O)Nc1ccc(Cl)c(S(=O)(=O)N(CC)c2ccccc2)c1,,"35.5 µM [rising, single point]"
CC(C)(C)n1nnnc1C(c1cccs1)N1CCCc2ccccc21 (stereo not drawn),"22.4 µM [rising, partial curve, poor fit]",
CN(C(=O)CSc1nnc(-c2ccccc2F)o1)C1CCCCC1,"0.0282 µM [rising, full curve]",
O=C(Nc1ccc(N2CCOCC2)cc1)C1(c2ccc(Cl)cc2)CCC1,,"35.5 µM [rising, single point]"
CCCCCCOc1ccc(OC(=O)c2ccncc2)cc1,,"22.4 µM [rising, single point]"
O=C(/C=C/Nc1ccccc1Br)c1ccccn1,"17.8 µM [rising, single point]",
NC(=O)c1c(NC(=O)CSc2nnc(-c3ccco3)n2-c2ccccc2)sc2c1CCC2,,"15.8 µM [rising, single point]"
O=C(NC(Cc1c[nH]c2ccccc12)C(=O)Nc1ccc(OC(F)(F)F)cc1)c1cccs1 (stereo not drawn),,"31.6 µM [rising, single point]"
COc1ccc(-c2noc(CCCOc3ccc(Cl)cc3Cl)n2)cc1,,"31.6 µM [rising, single point]"
c1ccc2oc(-c3ccc(Nc4nc(N5CCCCC5)nc(N5CCOCC5)n4)cc3)nc2c1,"35.5 µM [rising, single point]",
COc1cc(NC(=O)Nc2cccc(-c3noc(C)n3)c2)cc(OC)c1OC,"0.794 µM [falling, partial curve]",
COc1ccccc1Nc1nnc(SCC(=O)c2cc(C)n(CC3CCCO3)c2C)s1 (stereo not drawn),"4.47 µM [rising, partial curve, poor fit]","12.6 µM [rising, partial curve, poor fit]"

SMILES,AC50 [1],AC50 [2]
Cc1ccc(NCc2nnc(SCC(=O)N3c4ccccc4Sc4ccccc43)o2)c(C)c1,,"22.4 µM [rising, partial curve, poor fit]"
Cc1cc2ncn(-c3ncnc4sc5c(c34)CCC(C)C5)c2cc1C (stereo not drawn),"25.1 µM [falling, single point]","12.6 µM [falling, partial curve]"
C[C@]12C=CC(=O)C=C1CC[C@@H]1[C@@H]2[C@@H](O)C[C@@]2(C)[C@H]1CC[C@]2(O)C(=O)COC(=O)CCC(=O)O,"0.0891 µM [rising, full curve, poor fit]","20 µM [rising, partial curve]"
Cc1ccc(C2CN(C)C3(C(=O)Nc4ccccc43)C23COc2ccccc2C3=O)cc1 (stereo not drawn),"35.5 µM [falling, single point]","35.5 µM [falling, single point]"
COC(=O)[C@@H]1[C@H]2C[C@H]3c4[nH]c5ccccc5c4CCN3C[C@@H]2CC[C@@H]1O,"0.02 µM [falling, full curve, poor fit]",
Cc1cc(C)cc(Nc2nc(-c3ccc(S(=O)(=O)N4CCCC4)cc3)cs2)c1,,"12.6 µM [rising, partial curve, poor fit]"
Cc1ccc(OCC(=O)Nc2ccc(Cl)c(-c3nc4ncccc4o3)c2)c(C)c1,"3.98 µM [falling, partial curve, poor fit]","2.51 µM [falling, partial curve, poor fit]"
O=C(CSc1ncccc1-c1nc2ccccc2[nH]1)N1CCN(c2ccccc2F)CC1,"25.1 µM [rising, single point]","35.5 µM [rising, single point]"
COc1ccc(N(C(=O)c2ccccc2)S(=O)(=O)c2cccs2)cc1,"11.2 µM [falling, partial curve]",
CC(C)(C)c1ccc(CN2CCN([C@H](c3ccccc3)c3ccc(Cl)cc3)CC2)cc1,"0.00631 µM [falling, full curve, poor fit]","14.1 µM [rising, partial curve]"
CC(C)(C)c1ccc(OCC(=O)Nc2ccc(S(=O)(=O)Nc3ncccn3)cc2)cc1,,"0.562 µM [falling, full curve, poor fit]"
O=C1Nc2ccc(Cl)cc2C(C#CC2CC2)(C(F)(F)F)O1 (stereo not drawn),"5.62 µM [rising, partial curve, poor fit]",
COc1ccc(CCNC(=O)CCCCCNc2nc(=S)[nH]c3ccccc23)cc1OC,,"28.2 µM [rising, single point]"
O=C1NC2(CCCCC2)C(=O)N1CCN1C(=O)c2ccccc2C1=O,,"0.0398 µM [falling, full curve]"
CN(C(=O)COc1nnc(-c2cccs2)c(-c2cccs2)n1)c1ccccc1,"14.1 µM [rising, single point]",
O=C(Nc1ccccc1)Nc1ccc(F)c([N+](=O)[O-])c1,"17.8 µM [rising, single point]","35.5 µM [rising, single point]"
CCOC(=O)c1c(NC(=O)CSc2nnc(-c3c[nH]c4ccccc34)n2CC)sc2c1CCCC2,"14.1 µM [rising, partial curve]","14.1 µM [rising, partial curve]"
Cc1nn(C)c2c1c(-c1ccccc1)cc(=O)n2CC(=O)Nc1ccccc1C(F)(F)F,"0.251 µM [rising, full curve, poor fit]",
Cc1ccc(OCC(=O)Nc2ccc3nc(SCC(=O)N4CCOCC4)sc3c2)cc1,"8.91 µM [falling, partial curve, poor fit]",
O=C(Nc1ncc(Cc2ccc(C(F)(F)F)cc2)s1)c1ccc(-c2cccc([N+](=O)[O-])c2)o1,"3.55 µM [rising, full curve]","6.31 µM [rising, partial curve]"
COc1ccc(C2=NOC(C(=O)NCc3ccco3)C2)cc1OC (stereo not drawn),"8.91 µM [falling, partial curve]","8.91 µM [falling, partial curve]"
COc1ccc(OC)c(-c2csc(NC(=O)C3c4ccccc4Oc4ccccc43)n2)c1,"7.94 µM [falling, partial curve, poor fit]","15.8 µM [falling, partial curve, poor fit]"
Cc1cccc(OCc2nnc(SCC(=O)c3ccccc3)o2)c1,"22.4 µM [rising, single point]",
COc1ccc(Nc2ccc(S(=O)(=O)N3CCCCCC3)cc2[N+](=O)[O-])cc1,"7.94 µM [rising, partial curve]","11.2 µM [rising, partial curve]"
Cc1ccc(C)c(S(=O)(=O)N2CCN(CC(=O)Nc3ccc([N+](=O)[O-])cc3)CC2)c1,"11.2 µM [rising, partial curve, poor fit]","22.4 µM [rising, partial curve]"
O=C1/C(=C/c2ccncc2)SC(=S)N1C1CCS(=O)(=O)C1 (stereo not drawn),"31.6 µM [falling, single point]","25.1 µM [falling, single point]"

# Complete entries as entered above:
# Cc1ccc(C2CN(C)C3(C(=O)Nc4ccccc43)C23COc2ccccc2C3=O)cc1 (stereo not drawn) is listed as AC50 [1]: 35.5 µM [falling, single point]; AC50 [2]: 35.5 µM [falling, single point]
# CC(C)(C)c1ccc(CN2CCN([C@H](c3ccccc3)c3ccc(Cl)cc3)CC2)cc1 is listed as AC50 [1]: 0.00631 µM [falling, full curve, poor fit]; AC50 [2]: 14.1 µM [rising, partial curve]
# Cc1nn(C)c2c1c(-c1ccccc1)cc(=O)n2CC(=O)Nc1ccccc1C(F)(F)F is listed as AC50 [1]: 0.251 µM [rising, full curve, poor fit]
# COc1ccc(N(C(=O)c2ccccc2)S(=O)(=O)c2cccs2)cc1 is listed as AC50 [1]: 11.2 µM [falling, partial curve]
